Measurements taken from patent US20250136696A1.
Results are given in words; binding and its absence hold for the method and conditions named. A result given as binding can be weak or reduced; the word gives no strength.

Target: cynomolgus monkey B7-H7 on the cell surface (cynomolgus monkey)
Assay: flow cytometry on cells

| Binder | binding |
| --- | --- |
| PR003252 (antibody, human IgG1, kappa, V domains shown) VH: QVQLVESGGGVVQPGRSLRLSCAASGFTFSNYAMHWVRQVPGKGLEWVALIWYDGSEKYYADSVKGRFTISRDDSKNTLFLQMSSLRAEDTAVYSCVREYSSGWGYFDYWGQGTQVTVSS VL: DIQMTQSPSTLSASVGDRVTITCRASQSISSWLAWYQQKPGKAPKLLIYKASSLKSGVPSRFSGSGSGTEFTLTISSLQPDDFATYYCLQYNSYYTFGQGTKLEIKR | binds |
| PR003260 (antibody, human IgG1, kappa, V domains shown) VH: QVQLVESGGGVVQPGRSLRLPCAASGFTFSRYGMHWVRQAPGKGLEWVADIWYDGSKKYYADSVKGRFTISRDNSKNTLYLQMNSLRAEDTAVYFCTRDGGYSYGPFDYWGQGTLVTVSS VL: EIVMTQSPATLSVSPGERATLSCRASQSVSSNLAWYQQKPGQAPRLLIYYASTRAPGIPARFSGSESGTEFTLTISSLQSEDFAVYYCQQYNIWPYTFGQGTKLEIKR | binds |

Other lines, results leading:

| binding | Binder |
| --- | --- |
| binds | PR003262 (antibody, human IgG1, kappa, V domains shown) VH: QVQLVESGGGVVQPGRSLRLSCAASGFTFSRYGIHWVRQAPGKGLEWVAVIWYNGRNKYYVDSVKGRFTISRDNSKNTLYLQMNSLRAEDTAVYYCARDGGYSYGPFDYWGQGTLVTVSS VL: EIVMTQSPATLSVSPGERATLSCRASQSFSNNLAWYQQKPGQAPRLLIYGASTRATGIPARFSGSGSGTEFTLTISSLQSEDFAVYYCHQYNIWPLTFGGGTKVEIKR |
| binds | PR003263 (antibody, human IgG1, kappa, V domains shown) VH: QVQLVESGGGVVQPGRSLRLSCAASGFTFSYYGLNWVRQAPGKGLEWVAVIWFDGTNKYYADSVKGRFTISRDDSKNTLYLQMNSLRAEDTAVYYCARGYGSGSYYNYVMDAWGQGASVTVSS VL: EIVMTQSPATLSVSPGERATLSCRASQSVSSNLAWYQQKPGQAPRLLIYGASTGATGIPARFSGSGSGTDFTLTISSLQSEDFAVYYCQQYYKWPLTFGGGTKVEIKR |
| binds | PR003265 (antibody, human IgG1, kappa, V domains shown) VH: QVQLVESGGGVVQPGRSLRLSCAASGFTFSTYGLHWVRQAPGKGLEWVAVIWYDESNEYYADSVKGRFTISRDNSKNTLYLQMNSLRAEDTALYYCARLAHDYGGTYFDYWGQGTLVTVSS VL: EIVMTQSPAILSVSPGERATLSCRASQSISYNLAWYQQKPGQAPRLLIYGASIRATGIPARFSGSGSGTDFTLTISSLQSEDFAVYYCQQYNNWPPWTFGQGTKVEIKR |
